PubChem BioAssay AID652272 | Drosophila RNAi Screening Center | 2013
Assay: 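Finding fly genes that regulate Hedgehog signal transduction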 (primary screen). System: Drosophila clone 8 (Cl8) cells. Reagents: long dsRNA against Drosophila genes. Read-out: 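Firefly light from a Hedgehog-responsive ptc promoter reporter and Renilla reference light, both read on a plate reader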. Scale: firefly Hh reporter signal: higher = more ptc reporter light; Renilla reference signal: higher = more Renilla control light. Hit rule: 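Hit when the z-score averaged over two replicates is under -2 or over +3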. Calls: active = hit: reporter lowered or raised; inactive = not a hit.
The deposit covers about 21,000 reagents; shown is an unselected part of those with a known target gene and a result. In the full data, 503 (2.4%) were called active. 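Raw plate light values, not normalised; calls rest on replicate z-scores that were not deposited; hits include reporter decreases as well as increases.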 Reagent sequences are not shown. The record does not give: the amount of reagent, the time to read-out.

Silencing of yki [DRSC04437] came out at: firefly Hh reporter signal, replicate 1 = 1.09e5; firefly Hh reporter signal, replicate 2 = 60690; Renilla reference signal, replicate 1 = 4224; Renilla reference signal, replicate 2 = 2571; inactive.
Against synr [DRSC02369], the entry reads firefly Hh reporter signal, replicate 1 = 1.65e5; firefly Hh reporter signal, replicate 2 = 84827; Renilla reference signal, replicate 1 = 4946; Renilla reference signal, replicate 2 = 7323; inactive.
With knock-down of CG34292 [DRSC13807], the screen gave firefly Hh reporter signal, replicate 1 = 48352; firefly Hh reporter signal, replicate 2 = 2.53e5; Renilla reference signal, replicate 1 = 12631; Renilla reference signal, replicate 2 = 5800; inactive.
Against RtcB [DRSC03280] the deposit lists firefly Hh reporter signal, replicate 1 = 1.39e5; firefly Hh reporter signal, replicate 2 = 64626; Renilla reference signal, replicate 1 = 3536; Renilla reference signal, replicate 2 = 6504; inactive.
Knock-down of CycT [DRSC11124] gave: firefly Hh reporter signal, replicate 1 = 33594; firefly Hh reporter signal, replicate 2 = 16172; Renilla reference signal, replicate 1 = 2042; Renilla reference signal, replicate 2 = 1450; active.
Silencing of elB [DRSC03527] gave: firefly Hh reporter signal, replicate 1 = 1.90e5; firefly Hh reporter signal, replicate 2 = 71894; Renilla reference signal, replicate 1 = 4428; Renilla reference signal, replicate 2 = 6824; inactive.
Knock-down of mtgo [DRSC02245] came out at: firefly Hh reporter signal, replicate 1 = 2.27e5; firefly Hh reporter signal, replicate 2 = 3.53e5; firefly Hh reporter signal, replicate 3 = 70748; Renilla reference signal, replicate 1 = 5411; Renilla reference signal, replicate 2 = 22544; inactive.
Depletion of mtgo [DRSC02246] came out at: firefly Hh reporter signal, replicate 1 = 4.30e5; firefly Hh reporter signal, replicate 2 = 6.30e5; firefly Hh reporter signal, replicate 3 = 1.57e5; Renilla reference signal, replicate 1 = 29079; Renilla reference signal, replicate 2 = 3724; inactive.
With knock-down of mtgo [DRSC02769], the screen gave firefly Hh reporter signal, replicate 1 = 70717; firefly Hh reporter signal, replicate 2 = 51575; Renilla reference signal, replicate 1 = 3712; Renilla reference signal, replicate 2 = 2736; inactive.
Silencing of nonA [DRSC20357] gave: firefly Hh reporter signal, replicate 1 = 63084; firefly Hh reporter signal, replicate 2 = 3.12e5; Renilla reference signal, replicate 1 = 2217; Renilla reference signal, replicate 2 = 13222; inactive.
For Tmx3 [DRSC10471] the deposit lists firefly Hh reporter signal, replicate 1 = 95205; firefly Hh reporter signal, replicate 2 = 70032; Renilla reference signal, replicate 1 = 4528; Renilla reference signal, replicate 2 = 2300; inactive.
With knock-down of CG6262 [DRSC06971] the results were firefly Hh reporter signal, replicate 1 = 51676; firefly Hh reporter signal, replicate 2 = 31234; Renilla reference signal, replicate 1 = 1765; Renilla reference signal, replicate 2 = 2064; inactive.
For SmD3 [DRSC07553], the values are firefly Hh reporter signal, replicate 1 = 65787; firefly Hh reporter signal, replicate 2 = 35394; Renilla reference signal, replicate 1 = 2077; Renilla reference signal, replicate 2 = 3168; inactive.
Silencing of ccb [DRSC20501] gave: firefly Hh reporter signal, replicate 1 = 72082; firefly Hh reporter signal, replicate 2 = 2.26e5; Renilla reference signal, replicate 1 = 2176; Renilla reference signal, replicate 2 = 8867; inactive.
dmGlut [DRSC02835] showed firefly Hh reporter signal, replicate 1 = 87228; firefly Hh reporter signal, replicate 2 = 58771; Renilla reference signal, replicate 1 = 3621; Renilla reference signal, replicate 2 = 2438; inactive.
Against CG8281 [DRSC10976], the values are firefly Hh reporter signal, replicate 1 = 54033; firefly Hh reporter signal, replicate 2 = 83383; Renilla reference signal, replicate 1 = 2148; Renilla reference signal, replicate 2 = 6056; inactive.
For CG8635 [DRSC07226], the values are firefly Hh reporter signal, replicate 1 = 85208; firefly Hh reporter signal, replicate 2 = 39113; Renilla reference signal, replicate 1 = 4065; Renilla reference signal, replicate 2 = 1731; inactive.
With knock-down of Prosalpha2 [DRSC16798] the results were firefly Hh reporter signal, replicate 1 = 48468; firefly Hh reporter signal, replicate 2 = 58320; Renilla reference signal, replicate 1 = 2346; Renilla reference signal, replicate 2 = 9718; inactive.
CG2256 [DRSC18220] showed firefly Hh reporter signal, replicate 1 = 1.89e5; firefly Hh reporter signal, replicate 2 = 3.79e5; Renilla reference signal, replicate 1 = 6664; Renilla reference signal, replicate 2 = 13186; inactive.
scny [DRSC10509] gave firefly Hh reporter signal, replicate 1 = 70374; firefly Hh reporter signal, replicate 2 = 80585; Renilla reference signal, replicate 1 = 3050; Renilla reference signal, replicate 2 = 3480; inactive.
Against scny [DRSC10510], the values are firefly Hh reporter signal, replicate 1 = 27634; firefly Hh reporter signal, replicate 2 = 25652; Renilla reference signal, replicate 1 = 2934; Renilla reference signal, replicate 2 = 2099; inactive.
